Assay results as given in the supplement of paper PMC3334620.
In all, about 33,000 sequences were measured (“E-score (-0.5 to 0.5)”: median about -0.015, highest 2% from about 0.3 on). The list shows a part of the results.

Biological target: T1, Abf1 (UniProt P14164)
T1 sequence: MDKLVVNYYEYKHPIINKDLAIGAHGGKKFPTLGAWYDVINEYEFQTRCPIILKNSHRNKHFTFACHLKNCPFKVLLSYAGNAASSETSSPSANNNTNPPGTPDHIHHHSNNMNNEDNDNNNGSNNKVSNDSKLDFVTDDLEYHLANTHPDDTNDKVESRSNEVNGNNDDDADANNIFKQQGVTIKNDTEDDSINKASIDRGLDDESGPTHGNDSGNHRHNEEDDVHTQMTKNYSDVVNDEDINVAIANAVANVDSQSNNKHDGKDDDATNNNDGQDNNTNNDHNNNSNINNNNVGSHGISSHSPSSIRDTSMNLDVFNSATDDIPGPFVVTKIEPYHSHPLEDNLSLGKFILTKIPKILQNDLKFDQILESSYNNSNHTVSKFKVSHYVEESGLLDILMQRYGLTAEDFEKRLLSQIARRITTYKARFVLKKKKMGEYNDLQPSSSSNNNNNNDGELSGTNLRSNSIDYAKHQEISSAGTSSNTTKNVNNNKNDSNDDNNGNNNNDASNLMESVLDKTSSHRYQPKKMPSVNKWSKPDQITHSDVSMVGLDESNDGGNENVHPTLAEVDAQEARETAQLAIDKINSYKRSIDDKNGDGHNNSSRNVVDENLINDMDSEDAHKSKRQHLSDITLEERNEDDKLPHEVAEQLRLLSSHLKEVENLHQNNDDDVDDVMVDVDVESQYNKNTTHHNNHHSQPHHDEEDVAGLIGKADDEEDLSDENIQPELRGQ
Assay: PBM E-score (8-mer binding enrichment) (E-score (-0.5 to 0.5)); higher = stronger / more preferred TF binding
Conditions: protein concentration: 200 nM; construct: GST-full length
Procedure: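 Universal 'all 10-mer' protein binding microarrays (Agilent AMADID 015681) probed with GST-tagged S. cerevisiae TFs (full-length or DBD) made by in vitro transcription/translation (PURExpress), about 100-200 nM. Bound TF was detected with fluorescent anti-GST. Each ungapped 8-mer (which stands for itself and its reverse complement) is scored by the PBM enrichment score (E-score), a modified Wilcoxon-Mann-Whitney statistic from -0.5 to +0.5, computed with the Universal PBM Analysis Suite. Scale: above 0.35 generally sequence-specific binding.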

Row | Sequence | PBM E-score
1 | ACCTCGAT | -0.0103
2 | AAGACAGG | 0.0183
3 | AGTGTCCA | -0.0379
4 | CGACGCCA | -0.159
5 | AAAAGCGG | -0.179
6 | AATTGTAG | 0.0035
7 | CCGCGAAG | -0.0585
8 | ATGCGAAC | 0.0355
9 | GGTCTTTA | 0.0661
10 | CATTTACG | 0.0051
11 | AACCTGCT | -0.0529
12 | CCGCGCTC | -0.0945
13 | AATCGAGA | 0.0395
14 | ATCGTTAG | 0.252
15 | AGAATTAG | -0.163
16 | GTTTGTCA | 0.268
17 | ATGCCTAC | -0.183
18 | ATAATCTC | 0.139
19 | TGAAGCAA | -0.0631
20 | CCTGACTA | 0.156
21 | GCCGTAGA | 0.371
22 | GGTAAGTA | -0.122
23 | ATCCCGAC | 0.0326
24 | ATTGGTAG | -0.0865
25 | AAAAGCAA | -0.1

Row | Sequence | PBM E-score
26 | AGGGGCAG | -0.246
27 | ACAAGACA | -0.13
28 | ACCGATAC | 0.0193
29 | GCTTCTTA | 0.149
30 | GAATCGCA | 0.022
31 | CGTAGCGC | -0.146
32 | AATAGCAA | 0.12
33 | CGTAGTAG | 0.0753
34 | ATACGGAG | 0.0972
35 | ATTTCGAG | 0.142
36 | ATGCGTTA | 0.074
37 | CGTTTAAA | 0.246
38 | CCGATGGA | -0.0469
39 | GAAGACAC | -0.0111
40 | GACCTCGC | -0.0163
41 | AATGCACG | 0.115
42 | CAGTTTAC | -0.054
43 | AGTTTAGC | -0.174
44 | AGCCACAA | -0.102
45 | CAAAATCC | -0.0146
46 | ATAACCAA | 0.167
47 | ATAATCCC | 0.145
48 | AAGTCACG | 0.268
49 | GGAATTCC | -0.0623
50 | AGAGTTAA | 0.0301

Row | Sequence | PBM E-score
51 | CGGTCGGC | -0.154
52 | AACGAGGA | 0.0834
53 | GAACCCGC | -0.337
54 | GCAACCGA | -0.132
55 | GGATGTGA | -0.0763
56 | AATAGTGG | 0.0153
57 | TCTAAGCA | -0.0647
58 | AAAAATCT | 0.0941
59 | CGAAGTTC | 0.0733
60 | AACCCGTG | -0.0442
61 | AACTTGCC | -0.059
62 | CACCAATG | 0.0285
63 | AGAAAAGA | -0.0112
64 | GAACTCGA | 0.084
65 | TCTACGCA | 0.0333
66 | AGAGTCGG | -0.114
67 | CAAACCTC | -0.247
68 | CAGTTTAG | -0.143
69 | CGGGATGA | 0.0791
70 | CTCAAAAC | -0.0687
71 | CGTCCTGA | 0.148
72 | CCCTCGTC | 0.0467
73 | GTCTCAAA | 0.161
74 | GATTCACA | 0.0261
75 | AAAACCTG | -0.0914

Row | Sequence | PBM E-score
76 | ATAAGTGC | 0.0214
77 | GAATCTTA | 0.164
78 | CAAAACCA | -0.0072
79 | ACAGCTTC | -0.197
80 | GTCTTACA | -0.0527
81 | GTAGGGAA | 0.0879
82 | GTGGCTGA | 0.00582
83 | ATTCCGGC | -0.208
84 | CAAACACC | -0.0983
85 | CAGCGTCC | -0.29
86 | GATGAGTA | 0.0707
87 | CAATCTGC | -0.0922
88 | GACTCAAA | -0.05
89 | CTCTAAGA | 0.0828
90 | CTATTATC | 0.277
91 | CCACTTAG | -0.0828
92 | CCTGCCCC | -0.308
93 | AACGCTCA | -0.0246
94 | GACGACCA | 0.286
95 | ACAACATA | 0.0911
96 | AATCAGCA | 0.221
97 | CTGATGGC | -0.118
98 | GTATTCTA | 0.088
99 | ATTGTTAG | 0.0638
100 | AGGAAACA | 0.0584

Row | Sequence | PBM E-score
101 | AATTCGCG | 0.114
102 | AGGATAAA | 0.128
103 | ACCAACGC | -0.145
104 | CCTTCTGC | -0.195
105 | TAGCTCGA | -0.17
106 | AATTTGTA | 0.086
107 | ACCTGCGA | 0.0631
108 | TCAAAAGA | 0.0565
109 | GCAGAACC | -0.238
110 | CAAATTCG | 0.137
111 | ATAGTTCC | -0.0329
112 | AACTAACT | -0.0565
113 | GCCGGTAA | -0.103
114 | CATCTCGA | 0.00497
115 | CCGGCCTC | -0.162
116 | AGACTTGG | -0.263
117 | GTAGTGCA | -0.0469
118 | ACACGACC | -0.00503
119 | CCATCACG | -0.0432
120 | CAAATAGG | -0.0794
121 | GGCATCAA | -0.225
122 | GAACTGTA | 0.0102
123 | CTGTCAAC | 0.224
124 | CTGCTCAC | 0.0856
125 | CATCCTCA | 0.0722

Reformatted as labelled records: part of the list above
AAAACCTG
  PBM E-score: -0.0914
ATAAGTGC
  PBM E-score: 0.0214
GAATCTTA
  PBM E-score: 0.164
CAAAACCA
  PBM E-score: -0.0072

Continued:

Row | Sequence | PBM E-score
126 | AATTTAAG | -0.0175
127 | AATTCCAG | -0.00589
128 | CAGTGATA | 0.377
129 | GTACGGGA | 0.17
130 | AATCTCAC | 0.0907
131 | ACATGTCC | 0.271
132 | AAAAGCTT | -0.0184
133 | CAGTACAA | 0.0284
134 | GTATACAA | 0.184
135 | GCGCATCC | -0.11
136 | AAGAGAGA | -0.161
137 | GCCGGTAC | -0.0106
138 | ATTTCAAG | 0.181
139 | CCATTGGG | -0.0928
140 | GGCAGTAC | 0.0339
141 | GTGTCAAA | 0.0408
142 | AAAGGCCG | -0.144
143 | ACGAGACA | 0.185
144 | AATGGGTG | -0.0386
145 | ATCTATGG | -0.137
146 | ATACTTGG | 0.0857
147 | GGGGAGTA | -0.118
148 | CATTCCCG | 0.187
149 | AAAACCAA | 0.00572
150 | ATTCACTC | -0.142

Row | Sequence | PBM E-score
151 | ACTGTTCT | -0.0573
152 | ATCAGTCG | 0.198
153 | CATTAACC | 0.0935
154 | ATGAATTA | 0.0997
155 | CCTACGTC | 0.0219
156 | CGTTGCGC | 0.00442
157 | GACAAAAA | 0.15
158 | GAATACAA | 0.035
159 | AGCGAAAT | -0.0778
160 | GCGAAAGA | -0.024
161 | ACGCCCTC | 0.00844
162 | ATCGGGGG | -0.33
163 | CGAAGGTC | -0.196
164 | ATTGGCTC | -0.0984
165 | GCATTCGC | 0.0337
166 | AATGATCA | 0.347
167 | AACGGTAC | 0.218
168 | AGCCAGCA | -0.239
169 | TGAGTCAA | 0.112
170 | CTACTTTA | -0.0253
171 | CTCGTGTC | 0.118
172 | GCCTCAGC | -0.143

Pulled one by one from above (5):
Row | Sequence | PBM E-score
150 | ATTCACTC | -0.142
110 | CAAATTCG | 0.137
172 | GCCTCAGC | -0.143
1 | ACCTCGAT | -0.0103
111 | ATAGTTCC | -0.0329
